Experimental data reported in patent publication US20040001842A1.
These are yes or no findings as the source states them, for the method shown. Binding can be weak; no strength is given. Tags and fused reporters may be left off the sequences shown.

Amino acid sequences for entries named in this document (tags omitted). A change or cut given only in a name is not applied to a line headed by its entry.
UniProt P01350: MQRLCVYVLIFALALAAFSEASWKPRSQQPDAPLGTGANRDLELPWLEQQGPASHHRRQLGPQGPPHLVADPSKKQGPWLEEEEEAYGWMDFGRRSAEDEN

Target: truncated form of the human gastrin/CCK-B receptor (human)
Assay: confocal fluorescence microscopy of transfected NIH3T3 cells

AYGWMDF (ligand, UniProt P01350 86-92, looked up, rhodal green label) [rhodal green labeled heptagastrin]
binding: binds
